Assay [1] addresses T1, His-FLAG-tagged ATF2 (human (cDNA from K562 cells)) (UniProt P15336).
T1 sequence: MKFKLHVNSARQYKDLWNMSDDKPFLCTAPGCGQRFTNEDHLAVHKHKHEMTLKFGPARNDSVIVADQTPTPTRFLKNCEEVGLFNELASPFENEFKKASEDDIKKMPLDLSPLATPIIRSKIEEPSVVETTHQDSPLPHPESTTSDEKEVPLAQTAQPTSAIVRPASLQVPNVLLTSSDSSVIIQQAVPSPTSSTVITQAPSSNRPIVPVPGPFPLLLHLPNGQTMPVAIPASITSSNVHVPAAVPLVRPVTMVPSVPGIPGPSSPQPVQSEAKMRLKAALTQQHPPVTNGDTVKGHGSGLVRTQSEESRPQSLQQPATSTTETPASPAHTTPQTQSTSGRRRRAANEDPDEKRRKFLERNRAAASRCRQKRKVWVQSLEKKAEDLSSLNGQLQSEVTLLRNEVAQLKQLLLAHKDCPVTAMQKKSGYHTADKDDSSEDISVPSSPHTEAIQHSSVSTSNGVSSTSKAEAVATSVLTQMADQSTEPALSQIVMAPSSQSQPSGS
Kind of assay: co-sedimentation; 10-30% sucrose gradient in HEMG buffer, 4°C; 0.6 M NaCl heparin sepharose fractions dialysed against HEMG; fractions 10-17 by western blot; co-migration from 2 mDa peaking at 700 kDa. Background: A western blot detects proteins with antibodies after separation by electrophoresis.

Amino acid sequences for entries named in this document (tags omitted).
UniProt P16220: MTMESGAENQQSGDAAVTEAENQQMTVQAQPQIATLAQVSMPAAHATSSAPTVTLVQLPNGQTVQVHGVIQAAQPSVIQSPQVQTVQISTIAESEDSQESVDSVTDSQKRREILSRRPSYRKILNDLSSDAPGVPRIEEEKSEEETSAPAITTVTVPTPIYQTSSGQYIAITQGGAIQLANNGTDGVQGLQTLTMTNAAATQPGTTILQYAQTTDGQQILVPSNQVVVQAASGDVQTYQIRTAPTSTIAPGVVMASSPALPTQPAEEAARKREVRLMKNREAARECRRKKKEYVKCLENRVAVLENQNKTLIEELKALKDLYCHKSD
UniProt P51532: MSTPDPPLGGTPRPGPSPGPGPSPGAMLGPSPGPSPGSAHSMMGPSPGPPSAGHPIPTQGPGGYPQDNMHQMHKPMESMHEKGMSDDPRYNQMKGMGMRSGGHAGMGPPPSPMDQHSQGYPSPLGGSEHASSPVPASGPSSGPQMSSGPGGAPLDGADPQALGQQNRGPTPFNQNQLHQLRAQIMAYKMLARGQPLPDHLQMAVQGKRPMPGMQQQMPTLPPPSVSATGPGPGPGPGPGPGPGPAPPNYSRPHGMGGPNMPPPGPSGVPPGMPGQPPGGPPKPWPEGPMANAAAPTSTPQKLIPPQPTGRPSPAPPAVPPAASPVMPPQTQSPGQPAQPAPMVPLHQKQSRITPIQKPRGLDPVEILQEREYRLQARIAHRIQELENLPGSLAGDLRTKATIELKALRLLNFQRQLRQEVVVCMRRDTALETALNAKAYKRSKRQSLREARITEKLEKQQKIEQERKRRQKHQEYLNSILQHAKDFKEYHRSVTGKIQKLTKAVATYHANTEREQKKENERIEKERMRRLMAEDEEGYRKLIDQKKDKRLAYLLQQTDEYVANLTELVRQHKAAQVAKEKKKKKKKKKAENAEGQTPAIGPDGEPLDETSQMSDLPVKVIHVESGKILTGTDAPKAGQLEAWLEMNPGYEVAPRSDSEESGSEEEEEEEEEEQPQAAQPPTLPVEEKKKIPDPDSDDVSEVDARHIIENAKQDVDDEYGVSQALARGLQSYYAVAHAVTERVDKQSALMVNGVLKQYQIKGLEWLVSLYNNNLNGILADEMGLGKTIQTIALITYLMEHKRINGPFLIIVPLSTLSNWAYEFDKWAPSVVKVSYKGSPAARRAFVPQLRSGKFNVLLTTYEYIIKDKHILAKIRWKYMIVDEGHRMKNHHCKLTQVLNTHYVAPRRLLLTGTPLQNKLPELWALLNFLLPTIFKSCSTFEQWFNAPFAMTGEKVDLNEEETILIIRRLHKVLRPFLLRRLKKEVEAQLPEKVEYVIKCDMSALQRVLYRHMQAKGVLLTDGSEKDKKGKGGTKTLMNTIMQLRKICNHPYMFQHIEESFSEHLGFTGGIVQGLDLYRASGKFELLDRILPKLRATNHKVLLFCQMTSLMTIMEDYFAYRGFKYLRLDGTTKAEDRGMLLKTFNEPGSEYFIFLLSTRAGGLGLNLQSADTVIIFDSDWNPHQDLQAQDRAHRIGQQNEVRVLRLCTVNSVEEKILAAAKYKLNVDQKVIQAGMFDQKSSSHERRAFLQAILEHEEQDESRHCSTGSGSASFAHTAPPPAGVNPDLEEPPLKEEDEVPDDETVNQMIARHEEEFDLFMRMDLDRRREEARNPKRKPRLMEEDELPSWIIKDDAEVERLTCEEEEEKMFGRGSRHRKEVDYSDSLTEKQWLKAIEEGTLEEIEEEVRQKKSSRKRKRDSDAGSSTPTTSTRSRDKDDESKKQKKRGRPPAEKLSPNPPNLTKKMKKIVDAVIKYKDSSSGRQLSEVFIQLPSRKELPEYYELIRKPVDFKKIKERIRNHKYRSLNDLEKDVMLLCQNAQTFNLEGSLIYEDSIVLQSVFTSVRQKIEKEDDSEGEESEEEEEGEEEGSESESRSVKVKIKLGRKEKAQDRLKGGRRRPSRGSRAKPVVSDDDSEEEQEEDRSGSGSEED
UniProt Q92769: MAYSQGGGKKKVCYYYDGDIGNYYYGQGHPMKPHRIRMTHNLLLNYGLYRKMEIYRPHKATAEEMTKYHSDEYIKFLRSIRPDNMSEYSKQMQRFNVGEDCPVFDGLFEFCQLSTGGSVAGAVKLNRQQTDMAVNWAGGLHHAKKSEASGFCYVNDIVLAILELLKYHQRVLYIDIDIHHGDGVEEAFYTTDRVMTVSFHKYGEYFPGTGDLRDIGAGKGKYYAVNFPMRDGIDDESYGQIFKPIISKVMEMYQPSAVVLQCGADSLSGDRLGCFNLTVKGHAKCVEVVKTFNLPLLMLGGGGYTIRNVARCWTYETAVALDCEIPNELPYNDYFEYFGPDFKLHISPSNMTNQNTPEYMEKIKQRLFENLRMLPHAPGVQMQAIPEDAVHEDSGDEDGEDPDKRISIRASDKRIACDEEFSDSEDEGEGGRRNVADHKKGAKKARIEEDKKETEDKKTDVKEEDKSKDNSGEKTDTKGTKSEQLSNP
UniProt P05412: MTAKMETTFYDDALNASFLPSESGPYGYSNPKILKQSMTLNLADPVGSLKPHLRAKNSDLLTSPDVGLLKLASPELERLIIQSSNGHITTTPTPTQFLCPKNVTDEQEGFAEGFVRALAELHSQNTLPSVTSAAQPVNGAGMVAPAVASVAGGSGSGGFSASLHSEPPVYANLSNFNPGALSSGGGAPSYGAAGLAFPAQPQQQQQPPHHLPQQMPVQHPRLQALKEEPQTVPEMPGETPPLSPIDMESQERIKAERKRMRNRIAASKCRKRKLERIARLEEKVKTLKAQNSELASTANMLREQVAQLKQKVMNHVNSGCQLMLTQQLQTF

Assay [2] deals with T2, ATF2 (human (endogenous in K562 and in CD34+-derived erythroid cells)) (UniProt P15336).
T2 sequence: T1 sequence
As to the kind of experiment: co-IP; 500 µg K562 nuclear extract, 2 µg ATF2 or Brg1 antibody (IgG control), protein A/G-agarose overnight, western blot.

For assay [3], the target named is CREB1 (human (endogenous in K562 and in CD34+-derived erythroid cells)) (UniProt P16220). Kind of assay: co-IP; lysates (50 µg) of CD34+-derived erythroid cells at day 3, 7, 14 and 21 of erythropoietin-induced differentiation, IP with anti-CREB1 antibody (IgG control), western blot.
Assay [4] concerns the target Brg1 (human (endogenous in K562 and in CD34+-derived erythroid cells)) (UniProt P51532). Kind of assay: co-IP; 500 µg K562 nuclear extract, 2 µg ATF2 or Brg1 antibody (IgG control), protein A/G-agarose overnight, western blot.

Binding data for three substances are collected here from publication PMC3819381.

No constants are given. Whether binding was seen depends on the method and setting. Binding seen in cells or lysates may run through a third protein. Some results given as binding are weak or reduced against the parent protein; the word gives no strength. For some of these results: Tags and fused reporters may be left off the sequences shown.

As to Brg1 (from UniProt P51532 1-1647), the binding entry in assay [1] and in assay [2] was “binds” throughout.
On to HDAC2 (from UniProt Q92769 1-488), for which the binding result in assay [3], in assay [1], in assay [2] and in assay [4] was “binds” each time.
In the case of cJun (from UniProt P05412 1-331), the binding entry in assay [4] is “binds”.
